Results are given in words; binding and its absence hold for the method and conditions named. Some results given as binding are weak or reduced against the parent protein; the word gives no strength.
Molecular target: human blood clots (human) (UniProt P02671+P02675+P02679)
Experiment: immunohistochemical staining of blood clots in a human lung cancer resected specimen

Sequences of proteins named here, by UniProt entry; tags and fusion partners are left off. A change or cut given only in a name is not applied to a line headed by its entry.
UniProt P02671: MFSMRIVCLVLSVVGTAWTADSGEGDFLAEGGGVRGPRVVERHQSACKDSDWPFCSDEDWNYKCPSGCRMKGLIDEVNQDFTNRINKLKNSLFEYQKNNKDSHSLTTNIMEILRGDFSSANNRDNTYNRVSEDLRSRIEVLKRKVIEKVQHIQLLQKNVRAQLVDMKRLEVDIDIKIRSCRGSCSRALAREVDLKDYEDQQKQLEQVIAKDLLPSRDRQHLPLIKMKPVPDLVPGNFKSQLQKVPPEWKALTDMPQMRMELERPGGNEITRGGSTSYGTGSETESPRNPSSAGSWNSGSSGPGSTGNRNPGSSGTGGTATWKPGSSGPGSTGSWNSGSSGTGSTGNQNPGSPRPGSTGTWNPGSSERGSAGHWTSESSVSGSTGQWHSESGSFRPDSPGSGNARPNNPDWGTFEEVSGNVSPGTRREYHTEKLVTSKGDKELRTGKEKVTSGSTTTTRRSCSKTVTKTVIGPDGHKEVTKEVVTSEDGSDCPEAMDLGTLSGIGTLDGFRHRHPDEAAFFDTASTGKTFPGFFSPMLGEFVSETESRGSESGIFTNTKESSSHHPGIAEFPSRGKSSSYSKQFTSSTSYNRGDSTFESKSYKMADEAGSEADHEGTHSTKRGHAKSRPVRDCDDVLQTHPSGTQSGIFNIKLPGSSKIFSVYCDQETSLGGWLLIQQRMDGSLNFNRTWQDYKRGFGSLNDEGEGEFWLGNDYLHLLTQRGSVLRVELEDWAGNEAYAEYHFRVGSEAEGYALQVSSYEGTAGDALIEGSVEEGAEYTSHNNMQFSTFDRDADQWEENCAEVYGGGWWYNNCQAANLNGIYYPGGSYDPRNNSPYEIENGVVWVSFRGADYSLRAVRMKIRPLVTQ
UniProt P02675: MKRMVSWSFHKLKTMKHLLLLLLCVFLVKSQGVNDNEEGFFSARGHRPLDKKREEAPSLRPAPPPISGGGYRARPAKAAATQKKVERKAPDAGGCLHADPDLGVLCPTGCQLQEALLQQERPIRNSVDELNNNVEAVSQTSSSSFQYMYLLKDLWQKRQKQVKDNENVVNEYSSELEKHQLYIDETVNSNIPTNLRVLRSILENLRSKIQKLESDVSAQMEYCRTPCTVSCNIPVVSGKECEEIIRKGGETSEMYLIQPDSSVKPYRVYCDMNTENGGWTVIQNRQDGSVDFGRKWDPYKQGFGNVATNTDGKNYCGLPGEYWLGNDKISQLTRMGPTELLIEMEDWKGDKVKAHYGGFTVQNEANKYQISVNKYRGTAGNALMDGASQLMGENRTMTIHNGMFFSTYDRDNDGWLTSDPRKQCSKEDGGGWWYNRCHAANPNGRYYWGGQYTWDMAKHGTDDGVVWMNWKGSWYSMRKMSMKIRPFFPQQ
UniProt P02679: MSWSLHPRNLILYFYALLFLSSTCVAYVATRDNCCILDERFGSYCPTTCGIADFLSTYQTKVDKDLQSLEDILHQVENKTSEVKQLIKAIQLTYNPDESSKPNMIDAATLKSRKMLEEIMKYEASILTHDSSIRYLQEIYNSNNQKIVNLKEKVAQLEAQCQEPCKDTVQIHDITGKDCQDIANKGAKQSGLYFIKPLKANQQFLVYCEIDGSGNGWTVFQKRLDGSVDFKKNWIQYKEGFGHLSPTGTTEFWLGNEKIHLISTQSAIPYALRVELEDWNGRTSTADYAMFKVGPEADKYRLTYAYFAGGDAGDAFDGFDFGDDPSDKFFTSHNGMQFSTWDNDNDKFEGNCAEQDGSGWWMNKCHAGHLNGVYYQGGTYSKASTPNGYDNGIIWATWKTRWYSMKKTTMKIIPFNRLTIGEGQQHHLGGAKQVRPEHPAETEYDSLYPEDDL

B1: humanized 1101 antibody (antibody, V domains shown)
VH: EVQLVQSGAEVKKPGESLKISCKGSGYSFTSYWMHWVRQMPGKGLEWIGAIYPGNSDTRYSPSFQGQVTISADKSISTAYLQWSSLKASDTAMYYCTRKAHYGNYGFAYWGQGTLVTVSS
VL: DIQMTQSPSSLSASVGDRVTITCRASQHINNWLAWYQQKPGKAPKLLISGATSLQSGVPSRFSGSGSGTDFTLTISSLQPEDFATYYCQQYWSTPLTFGQGTKVEIKR
Which binding does the source give for B1 here?
Its binding is “binds”.

— US20240218058A1
